Measured values: PMC3527443
Results are given in words; binding and its absence hold for the method and conditions named. Binding seen in cells or lysates may run through a third protein. Some results given as binding are weak or reduced against the parent protein; the word gives no strength. For some assays here: Tags and fused reporters may be left off the sequences shown.

By UniProt entry, the sequences of proteins in these tests, tags left out.
UniProt Q15599: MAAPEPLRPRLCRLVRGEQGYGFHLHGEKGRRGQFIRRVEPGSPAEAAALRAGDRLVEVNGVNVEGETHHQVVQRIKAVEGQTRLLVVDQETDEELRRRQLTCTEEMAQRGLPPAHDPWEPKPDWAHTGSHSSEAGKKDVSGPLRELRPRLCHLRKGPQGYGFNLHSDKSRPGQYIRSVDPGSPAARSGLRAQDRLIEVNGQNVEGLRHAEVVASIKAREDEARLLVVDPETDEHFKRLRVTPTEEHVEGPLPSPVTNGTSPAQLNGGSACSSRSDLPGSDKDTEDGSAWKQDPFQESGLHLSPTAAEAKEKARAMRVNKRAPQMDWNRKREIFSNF

How the values were obtained:
[1] = molecular target: T1, HA-tagged C3aR (C3a receptor) (UniProt Q16581); test: co-IP; HEK293 cells transiently co-transfected with HA-tagged receptor (4 µg cDNA) and Flag-tagged NHERF (2 µg); cells exposed to buffer or C3a (100 nM, 37°C, 5 min); lysate immunoprecipitated with anti-HA agarose beads, 4°C, 4 h; washed twice in RIPA lysis buffer and once in ice-cold PBS; blot probed with anti-Flag (M2)
T1 sequence: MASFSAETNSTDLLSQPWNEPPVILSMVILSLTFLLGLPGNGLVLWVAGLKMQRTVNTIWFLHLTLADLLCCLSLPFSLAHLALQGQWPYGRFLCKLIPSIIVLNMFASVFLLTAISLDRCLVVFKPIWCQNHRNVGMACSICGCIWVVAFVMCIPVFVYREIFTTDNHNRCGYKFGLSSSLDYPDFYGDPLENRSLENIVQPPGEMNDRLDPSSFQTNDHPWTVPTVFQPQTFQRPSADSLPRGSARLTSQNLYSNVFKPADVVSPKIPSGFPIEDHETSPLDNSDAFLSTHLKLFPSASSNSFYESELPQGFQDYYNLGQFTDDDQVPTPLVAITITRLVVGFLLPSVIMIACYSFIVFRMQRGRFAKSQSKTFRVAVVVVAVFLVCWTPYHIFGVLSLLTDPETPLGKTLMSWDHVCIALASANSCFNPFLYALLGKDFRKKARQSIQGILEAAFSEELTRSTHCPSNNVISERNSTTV

[2] = molecular target: HA-tagged β2 adrenergic receptor (UniProt P07550); test: as above

binding [1]: no binding
binding [2]: binds
Substance: Flag-tagged NHERF2 (Na+/H+ exchanger regulatory factor-2) (from UniProt Q15599 1-337)
